# Source: PMC4599285
# Amino acid sequences for entries named in this document (tags omitted).
# UniProt P10415: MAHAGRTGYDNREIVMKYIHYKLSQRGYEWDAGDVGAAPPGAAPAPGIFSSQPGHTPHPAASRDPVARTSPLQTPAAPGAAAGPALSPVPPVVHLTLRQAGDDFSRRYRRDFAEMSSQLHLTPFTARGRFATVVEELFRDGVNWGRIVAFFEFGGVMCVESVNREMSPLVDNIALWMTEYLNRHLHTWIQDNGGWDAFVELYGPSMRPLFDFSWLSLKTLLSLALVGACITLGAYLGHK
# UniProt P31749: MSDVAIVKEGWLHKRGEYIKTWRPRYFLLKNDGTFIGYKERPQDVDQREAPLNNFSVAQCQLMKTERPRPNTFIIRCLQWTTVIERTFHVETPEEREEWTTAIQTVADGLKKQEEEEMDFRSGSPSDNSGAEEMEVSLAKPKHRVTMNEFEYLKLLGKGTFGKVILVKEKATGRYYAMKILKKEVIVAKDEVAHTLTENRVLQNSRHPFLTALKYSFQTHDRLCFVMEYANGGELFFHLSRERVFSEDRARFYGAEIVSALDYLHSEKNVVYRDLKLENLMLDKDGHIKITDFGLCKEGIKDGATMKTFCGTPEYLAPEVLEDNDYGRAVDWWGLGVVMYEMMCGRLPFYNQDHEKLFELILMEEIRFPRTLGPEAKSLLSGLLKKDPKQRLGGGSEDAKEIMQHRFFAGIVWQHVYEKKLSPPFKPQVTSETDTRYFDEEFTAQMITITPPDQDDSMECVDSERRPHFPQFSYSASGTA
# No constants are given. Whether binding was seen depends on the method and setting. Binding seen in cells or lysates may run through a third protein. Some binding calls cover weakened binding; strength is not graded here.
# Molecular target: T1, Apoptosis-stimulating protein of p53-2 (ASPP2), overexpressed from recombinant adenovirus-ASPP2 (UniProt Q13625)
# T1 sequence: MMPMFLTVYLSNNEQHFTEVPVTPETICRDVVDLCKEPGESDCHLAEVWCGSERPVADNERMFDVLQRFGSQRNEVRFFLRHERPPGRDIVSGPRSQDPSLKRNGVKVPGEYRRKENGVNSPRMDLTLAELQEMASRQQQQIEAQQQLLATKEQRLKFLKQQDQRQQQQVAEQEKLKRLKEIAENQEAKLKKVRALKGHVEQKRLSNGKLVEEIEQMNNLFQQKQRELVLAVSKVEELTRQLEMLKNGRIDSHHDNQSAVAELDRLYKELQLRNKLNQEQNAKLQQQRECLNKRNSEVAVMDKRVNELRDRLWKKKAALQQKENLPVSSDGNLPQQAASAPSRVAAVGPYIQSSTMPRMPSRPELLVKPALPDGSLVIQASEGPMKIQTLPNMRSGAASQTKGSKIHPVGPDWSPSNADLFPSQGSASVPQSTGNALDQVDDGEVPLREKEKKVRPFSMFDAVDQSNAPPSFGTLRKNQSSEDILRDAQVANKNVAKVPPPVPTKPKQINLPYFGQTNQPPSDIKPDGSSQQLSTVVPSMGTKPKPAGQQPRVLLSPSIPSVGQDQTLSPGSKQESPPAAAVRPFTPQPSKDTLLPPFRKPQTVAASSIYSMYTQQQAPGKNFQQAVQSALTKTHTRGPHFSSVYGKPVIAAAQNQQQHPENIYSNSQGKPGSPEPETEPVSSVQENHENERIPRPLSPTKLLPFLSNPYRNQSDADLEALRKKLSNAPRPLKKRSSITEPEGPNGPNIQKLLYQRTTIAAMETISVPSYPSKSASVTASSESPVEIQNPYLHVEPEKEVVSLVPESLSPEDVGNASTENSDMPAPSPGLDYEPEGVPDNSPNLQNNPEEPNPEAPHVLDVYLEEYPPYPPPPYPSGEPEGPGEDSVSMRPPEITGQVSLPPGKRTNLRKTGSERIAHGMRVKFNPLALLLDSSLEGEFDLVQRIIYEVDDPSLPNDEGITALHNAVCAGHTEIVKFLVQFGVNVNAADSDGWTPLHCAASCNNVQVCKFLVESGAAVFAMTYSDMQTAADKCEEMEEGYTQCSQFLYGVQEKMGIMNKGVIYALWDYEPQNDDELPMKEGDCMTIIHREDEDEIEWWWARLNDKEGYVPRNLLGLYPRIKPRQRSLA
# Test: co-IP; isolated nuclei of rAd-ASPP2-infected HepG2 cells transfected with the indicated siRNAs, 24 and 48 hours; bait not stated
row,Substance,binding
1,"nuclear Bcl-2, endogenous in HepG2 (from UniProt P10415 1-239)",binds
2,"nuclear p-AKT, endogenous in HepG2 (from UniProt P31749 1-480)",binds
